Experimental data taken from PMC11304330.
Results are given in words; binding and its absence hold for the method and conditions named. Binding seen in cells or lysates may run through a third protein. Some entries that bind do so weakly or less than the wild type.

The chains behind the UniProt entries cited, without tags or fusion partners.
UniProt P21926: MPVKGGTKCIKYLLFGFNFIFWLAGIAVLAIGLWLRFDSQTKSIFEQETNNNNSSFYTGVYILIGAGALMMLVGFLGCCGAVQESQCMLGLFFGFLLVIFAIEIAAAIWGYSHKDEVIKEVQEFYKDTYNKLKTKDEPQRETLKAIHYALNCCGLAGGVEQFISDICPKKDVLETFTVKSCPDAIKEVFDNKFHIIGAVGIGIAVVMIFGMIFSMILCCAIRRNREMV

Biological target: T1, friend leukemia integration 1 (FLI1) (UniProt Q01543)
T1 sequence: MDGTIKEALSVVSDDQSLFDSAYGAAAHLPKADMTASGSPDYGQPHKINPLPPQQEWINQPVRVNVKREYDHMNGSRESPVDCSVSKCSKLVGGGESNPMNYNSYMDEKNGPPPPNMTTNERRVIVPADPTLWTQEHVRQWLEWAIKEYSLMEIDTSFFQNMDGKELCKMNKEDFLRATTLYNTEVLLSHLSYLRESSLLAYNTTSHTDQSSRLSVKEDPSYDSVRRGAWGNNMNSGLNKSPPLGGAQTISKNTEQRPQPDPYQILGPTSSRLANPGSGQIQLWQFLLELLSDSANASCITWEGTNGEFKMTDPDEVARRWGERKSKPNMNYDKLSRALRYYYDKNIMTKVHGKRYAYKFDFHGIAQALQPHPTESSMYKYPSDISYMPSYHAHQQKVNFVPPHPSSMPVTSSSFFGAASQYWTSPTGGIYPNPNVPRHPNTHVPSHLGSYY
Assay: co-IP; FFA-treated Huh7 cells; lysates collected at 48 h post-transfection in RIPA buffer (10 mM sodium phosphate pH 8.0, 150 mM NaCl, 1% Triton X-100, 1% sodium deoxycholate, 0.1% SDS, 1 mM DTT, PMSF, PIC); 1 µg of antibody with protein A-agarose beads, 4 °C overnight; immunoblot

binding: binds
Substance: tetraspanin CD9 (from UniProt P21926 1-228)
